Results are given in words; binding and its absence hold for the method and conditions named. Binding seen in cells or lysates may run through a third protein. Some results given as binding are weak or reduced against the parent protein; the word gives no strength. For some assays here: Sequences can lack the tags named with a protein.
B1: Rab31 (endogenous, SiHa cells) (protein, UniProt Q13636 1-195)
chain: MMAIRELKVCLLGDTGVGKSSIVCRFVQDHFDHNISPTIGASFMTKTVPCGNELHKFLIWDTAGQERFHSLAPMYYRGSAAAVIVYDITKQDSFYTLKKWVKELKEHGPENIVMAIAGNKCDLSDIREVPLKDAKEYAESIGAIVVETSAKNAINIEELFQGISRQIPPLDPHENGNNGTIKVEKPTMQASRRCC
B2: Rab31 (Flag tag), exogenous (protein, UniProt Q13636 1-195)
chain: B1 chain

Protein sequences, listed by entry. Tags and fused reporters are not part of them.
UniProt Q16659: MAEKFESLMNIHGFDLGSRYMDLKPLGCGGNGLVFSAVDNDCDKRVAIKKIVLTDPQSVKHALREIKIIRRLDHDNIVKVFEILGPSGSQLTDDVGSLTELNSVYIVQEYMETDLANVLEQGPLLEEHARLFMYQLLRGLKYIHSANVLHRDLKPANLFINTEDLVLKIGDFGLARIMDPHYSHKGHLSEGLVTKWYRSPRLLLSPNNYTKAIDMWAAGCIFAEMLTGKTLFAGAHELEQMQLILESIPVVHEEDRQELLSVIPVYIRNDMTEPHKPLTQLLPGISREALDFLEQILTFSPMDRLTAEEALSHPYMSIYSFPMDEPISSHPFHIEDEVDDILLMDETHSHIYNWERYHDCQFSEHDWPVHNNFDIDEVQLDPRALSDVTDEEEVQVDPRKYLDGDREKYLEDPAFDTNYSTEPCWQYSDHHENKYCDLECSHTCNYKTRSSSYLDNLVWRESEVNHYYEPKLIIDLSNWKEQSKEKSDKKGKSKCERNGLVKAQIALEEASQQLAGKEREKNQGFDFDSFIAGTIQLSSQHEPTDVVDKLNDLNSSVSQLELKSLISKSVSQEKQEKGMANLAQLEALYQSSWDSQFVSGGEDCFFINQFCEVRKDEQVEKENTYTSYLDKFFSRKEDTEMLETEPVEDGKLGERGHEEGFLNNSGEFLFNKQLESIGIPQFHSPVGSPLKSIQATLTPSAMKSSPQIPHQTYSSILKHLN

Key:
[1] = target: mitogen-activated protein kinase 6 (MAPK6) (endogenous, SiHa cells) (human (endogenous in SiHa)) (UniProt Q16659); experiment: co-IP; endogenous proteins in SiHa cell lysate (weak RIPA buffer); target protein antibody or normal IgG overnight at 4 °C, magnetic beads 2-3 h, Western blotting
[2] = target: MAPK6 (HA tag), exogenous (UniProt Q16659); experiment: co-IP; SiHa cells transfected with plasmids expressing Rab31 (Flag tag) and MAPK6 (HA tag); lysate in weak RIPA buffer, antibody or normal IgG overnight at 4 °C, magnetic beads 2-3 h, Western blotting

Binder	binding [1]	binding [2]
B1	binds	
B2		binds
